Laboratory results: patent CN112745389A
Results are given in words; binding and its absence hold for the method and conditions named. Some entries that bind do so weakly or less than the wild type.

Chains of the proteins cited; added tags and fusions are not shown. Residues count along the entry.
UniProt P05113, residues 20-134: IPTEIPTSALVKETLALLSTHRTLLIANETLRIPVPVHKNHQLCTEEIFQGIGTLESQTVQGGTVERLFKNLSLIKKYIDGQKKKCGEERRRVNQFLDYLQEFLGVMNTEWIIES

Columns and labels:
[1] = target: 人IL-5蛋白 (human interleukin-5) (human) (UniProt P05113); test: affinity measurement (method not told here)
[2] = target: 人IL-5蛋白 (human interleukin-5) (human) (UniProt P05113); test: affinity measurement (sensorgram; Figure 6)

B1: 人源化抗体30E6D5 (humanized 30E6D5) (antibody, human IgG1, kappa, V domains shown)
VH: EVQLQQSGAEVKKPGATVKISCKTSGFNIKDYFMHWVQQAPGKGLEWMGRIDPEDGETIYAEKFQGRVTITADTSTNTAYMELSSLRSEDTAVYYCVSYSTYPDYWGQGTTVTVSS
VL: EIVLTQSPDFQSVTPKEKVTITCSASSSVSYMYWYQQKPDSSPKLWIYLTSTLASGVPSRFSGSGSGTDYTLTINSLEAEDAATYYCQQWSSTPFTFGQGTKLEIKR
binding [1]: binds | binding [2]: binds
